Reference: the supplement of paper PMC12067093, “Discovery and optimisation of a covalent ligand for TRIM25 and its application to targeted protein ubiquitination” (Chemical Science, 2025)
The list shows a part of the results.
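Also: competitive chemoproteomic profiling in live THP-1 cells with an iodoacetamide desthiobiotin (IA-DTB) probe, comparing probe-labelled peptide intensities in compound-treated cells against DMSO-treated controls.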

Amino acid sequences for entries named in this document (tags omitted). A change or cut given only in a name is not applied to a line headed by its entry.
UniProt Q9BZQ8: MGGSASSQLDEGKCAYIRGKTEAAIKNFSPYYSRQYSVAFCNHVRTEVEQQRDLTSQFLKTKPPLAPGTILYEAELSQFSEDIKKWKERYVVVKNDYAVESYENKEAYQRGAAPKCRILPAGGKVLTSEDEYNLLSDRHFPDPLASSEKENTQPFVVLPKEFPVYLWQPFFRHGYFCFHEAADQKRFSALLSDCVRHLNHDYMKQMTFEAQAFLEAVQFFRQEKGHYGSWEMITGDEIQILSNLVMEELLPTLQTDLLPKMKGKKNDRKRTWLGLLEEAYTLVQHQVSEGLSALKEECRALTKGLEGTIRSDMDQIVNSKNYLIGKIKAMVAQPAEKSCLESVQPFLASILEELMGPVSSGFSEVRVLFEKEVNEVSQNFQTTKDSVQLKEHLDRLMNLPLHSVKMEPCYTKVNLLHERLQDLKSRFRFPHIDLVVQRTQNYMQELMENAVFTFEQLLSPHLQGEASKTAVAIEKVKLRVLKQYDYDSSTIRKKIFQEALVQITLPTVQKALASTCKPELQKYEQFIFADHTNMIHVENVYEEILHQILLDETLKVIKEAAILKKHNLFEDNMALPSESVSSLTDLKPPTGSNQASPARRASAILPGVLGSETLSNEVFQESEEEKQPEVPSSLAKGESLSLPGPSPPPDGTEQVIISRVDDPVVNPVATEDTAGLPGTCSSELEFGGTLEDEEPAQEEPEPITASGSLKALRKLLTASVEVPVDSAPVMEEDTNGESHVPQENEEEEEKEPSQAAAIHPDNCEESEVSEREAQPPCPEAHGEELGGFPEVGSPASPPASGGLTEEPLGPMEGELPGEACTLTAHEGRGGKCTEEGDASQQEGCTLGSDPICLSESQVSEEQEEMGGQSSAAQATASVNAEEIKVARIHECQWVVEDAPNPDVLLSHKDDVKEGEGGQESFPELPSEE
UniProt P55899: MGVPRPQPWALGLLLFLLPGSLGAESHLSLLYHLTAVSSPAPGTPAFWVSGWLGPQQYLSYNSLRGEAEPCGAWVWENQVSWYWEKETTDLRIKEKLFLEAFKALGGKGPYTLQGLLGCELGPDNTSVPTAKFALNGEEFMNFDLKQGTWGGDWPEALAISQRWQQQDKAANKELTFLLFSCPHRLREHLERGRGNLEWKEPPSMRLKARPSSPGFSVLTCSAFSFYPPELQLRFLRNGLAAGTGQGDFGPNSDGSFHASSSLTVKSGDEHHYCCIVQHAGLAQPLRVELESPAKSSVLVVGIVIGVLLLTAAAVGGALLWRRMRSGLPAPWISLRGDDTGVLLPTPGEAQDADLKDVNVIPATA
UniProt Q53R41: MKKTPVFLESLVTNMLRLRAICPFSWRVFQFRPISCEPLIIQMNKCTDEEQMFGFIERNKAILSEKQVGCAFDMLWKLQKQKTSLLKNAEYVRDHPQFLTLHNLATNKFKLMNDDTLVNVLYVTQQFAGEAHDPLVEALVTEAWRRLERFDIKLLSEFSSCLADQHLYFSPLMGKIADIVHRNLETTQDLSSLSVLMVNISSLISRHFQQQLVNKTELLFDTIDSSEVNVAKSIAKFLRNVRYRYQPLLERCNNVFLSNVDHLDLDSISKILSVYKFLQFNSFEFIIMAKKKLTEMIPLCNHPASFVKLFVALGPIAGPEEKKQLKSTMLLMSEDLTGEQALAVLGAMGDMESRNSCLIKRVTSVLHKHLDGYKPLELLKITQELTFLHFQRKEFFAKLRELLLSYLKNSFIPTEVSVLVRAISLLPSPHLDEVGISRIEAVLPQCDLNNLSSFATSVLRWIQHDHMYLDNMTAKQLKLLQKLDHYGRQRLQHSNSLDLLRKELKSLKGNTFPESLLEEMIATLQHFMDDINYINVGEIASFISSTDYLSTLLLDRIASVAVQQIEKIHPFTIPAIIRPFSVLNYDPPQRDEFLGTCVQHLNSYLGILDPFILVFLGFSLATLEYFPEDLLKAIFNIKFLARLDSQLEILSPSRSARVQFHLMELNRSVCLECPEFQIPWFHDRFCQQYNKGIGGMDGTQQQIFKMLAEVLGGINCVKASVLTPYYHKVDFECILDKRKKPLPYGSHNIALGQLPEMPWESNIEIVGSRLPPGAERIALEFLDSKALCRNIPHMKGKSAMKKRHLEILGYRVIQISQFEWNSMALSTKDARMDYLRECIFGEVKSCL
UniProt Q86UX7, whole entry, looked up: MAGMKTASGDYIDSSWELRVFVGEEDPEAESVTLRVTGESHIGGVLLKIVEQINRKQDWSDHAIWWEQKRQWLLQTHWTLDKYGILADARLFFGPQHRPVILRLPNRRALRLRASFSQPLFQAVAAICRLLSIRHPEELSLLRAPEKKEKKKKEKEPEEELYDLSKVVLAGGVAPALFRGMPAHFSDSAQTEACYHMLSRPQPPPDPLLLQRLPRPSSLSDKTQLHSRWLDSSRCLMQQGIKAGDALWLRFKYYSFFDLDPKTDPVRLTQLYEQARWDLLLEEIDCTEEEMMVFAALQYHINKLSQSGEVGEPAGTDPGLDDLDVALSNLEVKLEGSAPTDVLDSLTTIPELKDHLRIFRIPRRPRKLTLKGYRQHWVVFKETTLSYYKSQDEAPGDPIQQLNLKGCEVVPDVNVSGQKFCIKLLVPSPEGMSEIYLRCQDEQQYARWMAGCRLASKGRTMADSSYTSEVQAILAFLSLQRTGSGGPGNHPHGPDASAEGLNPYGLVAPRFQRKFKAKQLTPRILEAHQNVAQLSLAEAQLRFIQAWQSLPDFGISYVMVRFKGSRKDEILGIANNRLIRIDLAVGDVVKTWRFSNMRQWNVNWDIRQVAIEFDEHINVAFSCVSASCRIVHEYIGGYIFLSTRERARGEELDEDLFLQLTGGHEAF
UniProt Q9NYY8: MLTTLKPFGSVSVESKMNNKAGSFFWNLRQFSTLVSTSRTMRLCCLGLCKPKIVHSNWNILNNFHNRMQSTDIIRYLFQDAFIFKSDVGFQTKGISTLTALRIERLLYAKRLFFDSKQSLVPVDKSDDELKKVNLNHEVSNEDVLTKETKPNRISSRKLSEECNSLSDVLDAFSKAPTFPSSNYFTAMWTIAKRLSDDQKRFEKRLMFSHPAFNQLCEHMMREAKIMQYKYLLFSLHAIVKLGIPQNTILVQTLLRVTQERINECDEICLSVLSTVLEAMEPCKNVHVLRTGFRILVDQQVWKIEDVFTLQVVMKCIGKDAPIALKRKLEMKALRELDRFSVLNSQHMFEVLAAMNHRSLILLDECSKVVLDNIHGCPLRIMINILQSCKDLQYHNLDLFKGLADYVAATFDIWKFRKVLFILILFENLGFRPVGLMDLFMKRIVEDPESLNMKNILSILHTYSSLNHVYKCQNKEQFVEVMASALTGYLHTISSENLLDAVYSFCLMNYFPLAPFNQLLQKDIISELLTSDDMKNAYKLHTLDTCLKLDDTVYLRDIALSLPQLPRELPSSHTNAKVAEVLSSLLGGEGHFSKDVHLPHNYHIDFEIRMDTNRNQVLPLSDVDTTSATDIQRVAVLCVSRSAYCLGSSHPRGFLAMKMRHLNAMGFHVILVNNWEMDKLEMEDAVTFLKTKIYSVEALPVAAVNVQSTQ
UniProt Q9NVI1: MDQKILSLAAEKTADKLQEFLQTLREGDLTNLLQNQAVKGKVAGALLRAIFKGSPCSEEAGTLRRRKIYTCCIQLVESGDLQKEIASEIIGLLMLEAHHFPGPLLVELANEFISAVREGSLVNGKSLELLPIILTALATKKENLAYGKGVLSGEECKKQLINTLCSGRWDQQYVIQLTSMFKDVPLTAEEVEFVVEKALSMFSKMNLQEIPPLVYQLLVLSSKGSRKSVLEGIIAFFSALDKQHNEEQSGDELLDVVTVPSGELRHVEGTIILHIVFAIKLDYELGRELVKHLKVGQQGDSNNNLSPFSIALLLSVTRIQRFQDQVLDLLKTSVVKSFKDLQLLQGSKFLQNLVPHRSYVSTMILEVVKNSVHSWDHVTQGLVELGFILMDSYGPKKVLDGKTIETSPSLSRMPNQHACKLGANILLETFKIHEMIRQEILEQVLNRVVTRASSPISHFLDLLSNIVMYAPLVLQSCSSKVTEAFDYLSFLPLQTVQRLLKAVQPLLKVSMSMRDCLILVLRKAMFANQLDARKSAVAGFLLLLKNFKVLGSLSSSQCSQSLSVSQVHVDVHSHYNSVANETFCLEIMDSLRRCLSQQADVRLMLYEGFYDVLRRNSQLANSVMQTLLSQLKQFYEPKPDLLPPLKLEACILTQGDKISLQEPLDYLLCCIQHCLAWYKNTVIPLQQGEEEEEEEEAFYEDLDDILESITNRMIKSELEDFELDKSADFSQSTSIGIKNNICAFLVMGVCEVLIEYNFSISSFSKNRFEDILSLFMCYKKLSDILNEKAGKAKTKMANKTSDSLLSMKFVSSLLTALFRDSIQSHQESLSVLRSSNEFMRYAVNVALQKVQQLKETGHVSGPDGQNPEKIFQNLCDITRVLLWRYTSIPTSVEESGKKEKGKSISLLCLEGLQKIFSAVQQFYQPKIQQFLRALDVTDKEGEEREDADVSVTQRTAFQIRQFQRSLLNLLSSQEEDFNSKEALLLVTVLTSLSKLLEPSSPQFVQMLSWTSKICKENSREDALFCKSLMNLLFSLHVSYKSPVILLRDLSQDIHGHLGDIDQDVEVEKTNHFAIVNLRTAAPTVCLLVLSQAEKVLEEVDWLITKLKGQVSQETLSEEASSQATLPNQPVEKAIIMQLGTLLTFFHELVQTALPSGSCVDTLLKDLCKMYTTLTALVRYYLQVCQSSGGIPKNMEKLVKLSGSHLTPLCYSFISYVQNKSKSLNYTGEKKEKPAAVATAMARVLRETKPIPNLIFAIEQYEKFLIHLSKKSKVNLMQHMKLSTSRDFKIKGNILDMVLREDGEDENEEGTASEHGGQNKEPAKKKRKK
UniProt P10109: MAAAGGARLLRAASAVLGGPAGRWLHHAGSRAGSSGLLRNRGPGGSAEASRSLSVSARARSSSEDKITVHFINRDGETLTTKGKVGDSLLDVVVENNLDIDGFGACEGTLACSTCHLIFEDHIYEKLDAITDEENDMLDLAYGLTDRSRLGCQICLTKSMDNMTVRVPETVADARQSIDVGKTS
UniProt Q8TB52: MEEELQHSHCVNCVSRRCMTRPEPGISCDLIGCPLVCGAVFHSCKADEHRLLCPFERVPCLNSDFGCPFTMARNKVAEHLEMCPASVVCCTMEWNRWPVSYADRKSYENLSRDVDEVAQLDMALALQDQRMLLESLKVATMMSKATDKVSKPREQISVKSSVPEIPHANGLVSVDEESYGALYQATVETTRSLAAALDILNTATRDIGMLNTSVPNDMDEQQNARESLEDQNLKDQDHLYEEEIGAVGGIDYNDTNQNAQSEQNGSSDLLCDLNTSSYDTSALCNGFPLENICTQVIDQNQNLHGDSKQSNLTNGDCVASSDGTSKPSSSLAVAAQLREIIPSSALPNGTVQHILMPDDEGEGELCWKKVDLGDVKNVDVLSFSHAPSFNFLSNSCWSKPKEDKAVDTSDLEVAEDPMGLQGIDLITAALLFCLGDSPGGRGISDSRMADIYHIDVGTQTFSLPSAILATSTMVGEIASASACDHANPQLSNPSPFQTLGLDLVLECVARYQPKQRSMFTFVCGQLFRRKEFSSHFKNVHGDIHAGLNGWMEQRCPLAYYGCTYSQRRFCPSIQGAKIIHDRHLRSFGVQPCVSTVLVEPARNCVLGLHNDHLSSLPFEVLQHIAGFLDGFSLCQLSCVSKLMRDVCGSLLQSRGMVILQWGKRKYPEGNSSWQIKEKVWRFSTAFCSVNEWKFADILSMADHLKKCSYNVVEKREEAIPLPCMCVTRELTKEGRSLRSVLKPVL
UniProt P39748, whole entry, looked up: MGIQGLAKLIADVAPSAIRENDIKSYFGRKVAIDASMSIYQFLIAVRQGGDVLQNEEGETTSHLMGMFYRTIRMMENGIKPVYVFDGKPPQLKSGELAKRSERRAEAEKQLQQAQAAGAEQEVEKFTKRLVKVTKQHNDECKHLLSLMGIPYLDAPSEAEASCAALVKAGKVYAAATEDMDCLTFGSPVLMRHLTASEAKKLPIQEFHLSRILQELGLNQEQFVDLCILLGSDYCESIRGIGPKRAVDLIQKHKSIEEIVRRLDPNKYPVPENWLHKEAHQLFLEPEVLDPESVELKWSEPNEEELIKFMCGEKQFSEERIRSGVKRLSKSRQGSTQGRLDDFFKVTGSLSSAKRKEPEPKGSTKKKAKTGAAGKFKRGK
UniProt P22087: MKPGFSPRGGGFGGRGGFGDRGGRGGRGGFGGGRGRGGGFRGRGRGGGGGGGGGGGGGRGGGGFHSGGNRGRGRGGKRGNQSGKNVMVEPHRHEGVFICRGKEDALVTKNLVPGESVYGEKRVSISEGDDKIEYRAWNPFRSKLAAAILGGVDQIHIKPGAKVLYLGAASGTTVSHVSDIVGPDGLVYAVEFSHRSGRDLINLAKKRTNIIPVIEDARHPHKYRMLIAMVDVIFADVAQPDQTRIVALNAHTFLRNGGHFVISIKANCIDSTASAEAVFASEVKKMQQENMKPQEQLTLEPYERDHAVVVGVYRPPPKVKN

These targets were tested with CC1Cc2ccccc2N1C(=O)C1CCCN(C1)C(=O)CCl (mixture of isomers) [TRIM25 ligand 11 (diastereomer mixture)] (assay: probe-labelled cysteine peptide fold change vs DMSO (competition) (log2 fold change); higher = less target engagement (more negative = stronger competition)). Settings: 50 µM; THP-1; incubation time: 4 h.
In the case of “FAM129A_Q9BZQ8_891_IHECQWVVEDAPNPDVLLSHK (UniProt Q9BZQ8)”, the “probe-labelled cysteine peptide fold change” value is reported as -0.235.
For “FCGRT_P55899_275_SGDEHHYCCIVQHAGLAQPLR (UniProt P55899)”, the “probe-labelled cysteine peptide fold change” value was -0.0259.
With “FAM129A_Q9BZQ8_194_RFSALLSDCVR (UniProt Q9BZQ8)” the “probe-labelled cysteine peptide fold change” value was 0.0225.
For “FEM1A_Q9BSK4_124_AACFDGHLEVVR (UniProt Q9BSK4)”, the “probe-labelled cysteine peptide fold change” value was 0.0865.
“FBXL6_Q8N531_439_WCHTLR (UniProt Q8N531)” was tested, and the “probe-labelled cysteine peptide fold change” value was -0.0919.
“FASTKD1_Q53R41_46_CTDEEQMFGFIER (UniProt Q53R41)” was tested, and the “probe-labelled cysteine peptide fold change” value was -0.134.
With “FARSB_Q9NSD9_548_CAEIFAR (UniProt Q9NSD9)” the “probe-labelled cysteine peptide fold change” value was -0.0374.
With “FERMT3_Q86UX7_439_CQDEQQYAR (UniProt Q86UX7)” the “probe-labelled cysteine peptide fold change” value was 0.246.
With “FAM208B_Q5VWN6_186_VIPILSTLNCALLETK (UniProt Q5VWN6)” the “probe-labelled cysteine peptide fold change” value was 0.0319.
In the case of “FASN_P49327_1558_HAQPTCPGAQLCTVYYASLNFRDIMLATGK (UniProt P49327)”, the “probe-labelled cysteine peptide fold change” value is reported as -0.182.
“FBN2_P35556_1012_WDEDECIHPVPGK (UniProt P35556)” was tested, and the “probe-labelled cysteine peptide fold change” value was 0.27.
“FASTKD2_Q9NYY8_645_SAYCLGSSHPR (UniProt Q9NYY8)” was tested, and the “probe-labelled cysteine peptide fold change” value was 0.181.
With “FERMT3_Q86UX7_407_GCEVVPDVNVSGQK (UniProt Q86UX7)” the “probe-labelled cysteine peptide fold change” value was -0.0064.
With “FASN_P49327_2024_EACPELDYFVVFSSVSCGR (UniProt P49327)” the “probe-labelled cysteine peptide fold change” value was -0.179.
“FCHSD2_O94868_304_DYNLQLFLQENAVFHKPQPFQFQPCDSDTSR (UniProt O94868)” was tested, and the “probe-labelled cysteine peptide fold change” value was 0.0239.
For “FASTKD5_Q7L8L6_708_NQYCYGSR (UniProt Q7L8L6)”, the “probe-labelled cysteine peptide fold change” value was 0.1.
In the case of “FAM192A_Q9GZU8_187_NQEPSSCK (UniProt Q9GZU8)”, the “probe-labelled cysteine peptide fold change” value is reported as -0.0722.
For “FANCD2_Q9BXW9_893_NSECDPTPSHR (UniProt Q9BXW9)”, the “probe-labelled cysteine peptide fold change” value was -0.178.
“FCGRT_P55899_221_ARPSSPGFSVLTCSAFSFYPPELQLR (UniProt P55899)” was tested, and the “probe-labelled cysteine peptide fold change” value was -0.278.
For “FANCI_Q9NVI1_1085_TAAPTVCLLVLSQAEK (UniProt Q9NVI1)”, the “probe-labelled cysteine peptide fold change” value was 0.0917.
For “FDX1_P10109_155_LGCQICLTK (UniProt P10109)”, the “probe-labelled cysteine peptide fold change” value was -0.0749.
In the case of “FASTKD1_Q53R41_446_IEAVLPQCDLNNLSSFATSVLR (UniProt Q53R41)”, the “probe-labelled cysteine peptide fold change” value is reported as 0.0567.
In the case of “FAR2_Q96K12_104+111_EDMQELLSCTNIIFHCAATVR (UniProt Q96K12)”, the “probe-labelled cysteine peptide fold change” value is reported as 0.0839.
With “FBXO30_Q8TB52_10_MEEELQHSHCVNCVSR (UniProt Q8TB52)” the “probe-labelled cysteine peptide fold change” value was -0.251.
In the case of “FASN_P49327_2273_LSIPTYGLQCTR (UniProt P49327)”, the “probe-labelled cysteine peptide fold change” value is reported as 0.0779.
With “FANCG_O15287_503_EQGAAFNCEQGCK (UniProt O15287)” the “probe-labelled cysteine peptide fold change” value was 0.106.
“FBXO38_Q6PIJ6_303_NLHTIVLGACK (UniProt Q6PIJ6)” was tested, and the “probe-labelled cysteine peptide fold change” value was -0.107.
In the case of “FAM185A_Q8N0U4_284_MGNITVDSSSGCLK (UniProt Q8N0U4)”, the “probe-labelled cysteine peptide fold change” value is reported as 0.101.
“FBXO30_Q8TB52_90_VAEHLEMCPASVVCCTMEWNR (UniProt Q8TB52)” was tested, and the “probe-labelled cysteine peptide fold change” value was -0.504.
For “FASN_P49327_2369_AKLTPGCEAEAETEAICFFVQQFTDMEHNR (UniProt P49327)”, the “probe-labelled cysteine peptide fold change” value was -0.005.
For “FECH_P22830_196_AIAFTQYPQYSCSTTGSSLNAIYR (UniProt P22830)”, the “probe-labelled cysteine peptide fold change” value was -0.132.
For “FGB_P02675_437_CHAANPNGR (UniProt P02675)”, the “probe-labelled cysteine peptide fold change” value was 0.339.
For “FEN1_P39748_182_VYAAATEDMDCLTFGSPVLMR (UniProt P39748)”, the “probe-labelled cysteine peptide fold change” value was -0.13.
“FANCL_Q9NW38_251_HPTMLPECFFLGADHVVKPLGIK (UniProt Q9NW38)” was tested, and the “probe-labelled cysteine peptide fold change” value was -0.0654.
For “FANCI_Q9NVI1_156_GVLSGEECK (UniProt Q9NVI1)”, the “probe-labelled cysteine peptide fold change” value was 0.0874.
With “FASN_P49327_1828_CTVFHGAQVEDAFR (UniProt P49327)” the “probe-labelled cysteine peptide fold change” value was 0.0378.
For “FAM193B_Q96PV7_766_VGSCAEAGEGSR (UniProt Q96PV7)”, the “probe-labelled cysteine peptide fold change” value was -0.0522.
“FASTKD2_Q9NYY8_546_LHTLDTCLK (UniProt Q9NYY8)” was tested, and the “probe-labelled cysteine peptide fold change” value was 0.108.
With FBL_P22087_99_HEGVFICR (UniProt P22087) the “probe-labelled cysteine peptide fold change” value was 0.0186.
